According to the supplement of paper PMC8728848:
This is one part of the list.

Tests used:
Test in all cases: glycan array binding signal (z-score within array); higher = stronger binding
Settings in all cases: glycan notation: IUPAC condensed, linker removed
[1] = target: Man(a1-2)Man(a1-3)[Man(a1-2)Man(a1-6)]Man
In short: (§1)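 From the Consortium for Functional Glycomics database, 3228 arrays were curated, keeping only those whose protein sequence was available. Binding is given as a within-array Z-score averaged across arrays sharing a protein sequence and across linkers. Negative Z-scores can be read as non-binding.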

[2] = target: Man(a1-2)Man(a1-3)[Man(a1-2)Man(a1-6)]Man(a1-6)[Man(a1-2)Man(a1-2)Man(a1-3)]Man
In short: as §1

[3] = target: Man(a1-2)Man(a1-3)[Man(a1-2)Man(a1-6)]Man(a1-6)[Man(a1-2)Man(a1-2)Man(a1-3)]Man(b1-4)GlcNAc(b1-4)GlcNAc
In short: as §1

[4] = target: Man(a1-2)Man(a1-3)[Man(a1-6)]Man(a1-6)[Man(a1-2)Man(a1-3)]Man(b1-4)GlcNAc(b1-4)GlcNAc
In short: as §1

[5] = target: Man(a1-2)Man(a1-6)[Man(a1-3)]Man(a1-6)[Man(a1-2)Man(a1-2)Man(a1-3)]Man
In short: as §1

[6] = target: Man(a1-2)Man(a1-6)[Man(a1-3)]Man(a1-6)[Man(a1-2)Man(a1-2)Man(a1-3)]Man(b1-4)GlcNAc(b1-4)GlcNAc
In short: as §1

Man(a1-3)[Man(a1-6)]Man = target: Man(a1-3)[Man(a1-6)]Man
In short: as §1

[7] = target: Man(a1-3)[Man(a1-6)]Man(a1-6)[Man(a1-2)Man(a1-3)]Man(b1-4)GlcNAc(b1-4)GlcNAc
In short: as §1

[8] = target: Man(a1-3)[Man(a1-6)]Man(a1-6)[Man(a1-3)]Man
In short: as §1

[9] = target: Man(a1-3)[Man(a1-6)]Man(a1-6)[Man(a1-3)]Man(b1-4)GlcNAc(b1-4)GlcNAc
In short: as §1

[10] = target: Man(a1-3)[Man(a1-6)]Man(b1-4)GlcNAc(b1-4)GlcNAc
In short: as §1

[11] = target: Man(a1-3)[Man(a1-6)]Man(b1-4)GlcNAc(b1-4)[Fuc(a1-6)]GlcNAc
In short: as §1

Man(a1-6)Man = target: Man(a1-6)Man
In short: as §1

Man(b1-4)GlcNAc = target: Man(b1-4)GlcNAc
In short: as §1

MurNAc(b1-4)GlcNAc = target: MurNAc(b1-4)GlcNAc
In short: as §1

Neu5Ac(a2-3)Gal = target: Neu5Ac(a2-3)Gal
In short: as §1

[12] = target: Neu5Ac(a2-3)Gal(b1-3)GalNAc
In short: as §1

[13] = target: Neu5Ac(a2-3)Gal(b1-3)GalNAc(b1-3)Gal(a1-4)Gal(b1-4)Glc
In short: as §1

[14] = target: Neu5Ac(a2-3)Gal(b1-3)GalNAc(b1-4)Gal(b1-4)Glc
In short: as §1

[15] = target: Neu5Ac(a2-3)Gal(b1-3)GalNAc(b1-4)[Neu5Ac(a2-3)]Gal(b1-4)Glc
In short: as §1

[16] = target: Neu5Ac(a2-3)Gal(b1-3)GalNAc(b1-4)[Neu5Ac(a2-8)Neu5Ac(a2-3)]Gal(b1-4)Glc
In short: as §1

[17] = target: Neu5Ac(a2-3)Gal(b1-3)GalNAc6S
In short: as §1

[18] = target: Neu5Ac(a2-3)Gal(b1-3)GlcNAc
In short: as §1

[19] = target: Neu5Ac(a2-3)Gal(b1-3)GlcNAc(b1-2)Man
In short: as §1

[20] = target: Neu5Ac(a2-3)Gal(b1-3)GlcNAc(b1-2)Man(a1-3)[GlcNAc(b1-4)][Neu5Ac(a2-3)Gal(b1-3)GlcNAc(b1-2)Man(a1-6)]Man(b1-4)GlcNAc(b1-4)GlcNAc
In short: as §1

[21] = target: Neu5Ac(a2-3)Gal(b1-3)GlcNAc(b1-2)Man(a1-3)[Neu5Ac(a2-3)Gal(b1-3)GlcNAc(b1-2)Man(a1-6)]Man(b1-4)GlcNAc(b1-4)GlcNAc
In short: as §1

[22] = target: Neu5Ac(a2-3)Gal(b1-3)GlcNAc(b1-2)[Neu5Ac(a2-3)Gal(b1-3)GlcNAc(b1-4)]Man(a1-6)[Neu5Ac(a2-3)Gal(b1-3)GlcNAc(b1-2)Man(a1-3)]Man(b1-4)GlcNAc(b1-4)GlcNAc
In short: as §1

[23] = target: Neu5Ac(a2-3)Gal(b1-3)GlcNAc(b1-3)Gal(b1-3)GlcNAc
In short: as §1

[24] = target: Neu5Ac(a2-3)Gal(b1-3)GlcNAc(b1-3)Gal(b1-4)GlcNAc
In short: as §1

[25] = target: Neu5Ac(a2-3)Gal(b1-3)GlcNAc(b1-3)GalNAc
In short: as §1

[26] = target: Neu5Ac(a2-3)Gal(b1-3)GlcNAc(b1-6)GalNAc
In short: as §1

[27] = target: Neu5Ac(a2-3)Gal(b1-3)GlcNAc6S
In short: as §1

[28] = target: Neu5Ac(a2-3)Gal(b1-3)[Fuc(a1-4)]GlcNAc
In short: as §1

[29] = target: Neu5Ac(a2-3)Gal(b1-3)[Fuc(a1-4)]GlcNAc(b1-3)Gal(b1-3)[Fuc(a1-4)]GlcNAc
In short: as §1

[30] = target: Neu5Ac(a2-3)Gal(b1-3)[Fuc(a1-4)]GlcNAc(b1-3)Gal(b1-4)[Fuc(a1-3)]GlcNAc
In short: as §1

[31] = target: Neu5Ac(a2-3)Gal(b1-3)[GlcNAc(b1-6)]GalNAc
In short: as §1

[32] = target: Neu5Ac(a2-3)Gal(b1-3)[Neu5Ac(a2-6)]GalNAc
In short: as §1

B1: SUN4 (Saccharomyces cerevisiae), P53616 (protein)
chain: MGSSHHHHHHSSGLVPRGSHNGSIYGDLADFSGPYEKFEDGTIPCGQFPSGQGVIPISWLDEGGWSGVENTDTSTGGSCKEGSYCSYACQPGMSKTQWPSDQPSDGRSIGGLLCKDGYLYRSNTDTDYLCEWGVDAAYVVSELSNDVAICRTDYPGTENMVIPTYVQAGDSLPLTVVDQDTYYTWQGLKTSAQYYVNNAGISVEDACVWGSSSSGVGNWAPLNFGAGSSDGVAYLSLIPNPNNGNALNFNVKIVAADDSSTVNGECIYENGSFSGGSDGCTVSVTAGKAKFVLYN
glycan array binding signal (z-score) [1]: 0.065
glycan array binding signal (z-score) [2]: -0.151
glycan array binding signal (z-score) [3]: -0.27
glycan array binding signal (z-score) [4]: -0.835
glycan array binding signal (z-score) [5]: -1.24
glycan array binding signal (z-score) [6]: -0.366
glycan array binding signal (z-score) (Man(a1-3)[Man(a1-6)]Man): 1.17
glycan array binding signal (z-score) [7]: 0.369
glycan array binding signal (z-score) [8]: -0.428
glycan array binding signal (z-score) [9]: -0.239
glycan array binding signal (z-score) [10]: -0.947
glycan array binding signal (z-score) [11]: 0.484
glycan array binding signal (z-score) (Man(a1-6)Man): -1.14
glycan array binding signal (z-score) (Man(b1-4)GlcNAc): -0.588
glycan array binding signal (z-score) (MurNAc(b1-4)GlcNAc): -1.2
glycan array binding signal (z-score) (Neu5Ac(a2-3)Gal): -0.565
glycan array binding signal (z-score) [12]: -0.447
glycan array binding signal (z-score) [13]: 0.263
glycan array binding signal (z-score) [14]: -0.196
glycan array binding signal (z-score) [15]: 0.193
glycan array binding signal (z-score) [16]: -0.149
glycan array binding signal (z-score) [17]: 0.335
glycan array binding signal (z-score) [18]: 0.704
glycan array binding signal (z-score) [19]: 0.699
glycan array binding signal (z-score) [20]: -0.802
glycan array binding signal (z-score) [21]: -0.58
glycan array binding signal (z-score) [22]: 1.38
glycan array binding signal (z-score) [23]: 1.52
glycan array binding signal (z-score) [24]: -0.21
glycan array binding signal (z-score) [25]: -0.405
glycan array binding signal (z-score) [26]: 0.252
glycan array binding signal (z-score) [27]: 0.449
glycan array binding signal (z-score) [28]: 0.219
glycan array binding signal (z-score) [29]: -0.09
glycan array binding signal (z-score) [30]: -0.306
glycan array binding signal (z-score) [31]: -0.883
glycan array binding signal (z-score) [32]: -0.426
